# Results from the supplement of paper PMC8728848.
# The list shows a part of the results.
# B1: his-Lectin-24A (Drosophila melanogaster) (protein)
# chain: MFRLSVLVLNLLLVSHEFSAGTAKIEIQPLPALCNGYCFPTLKPVMEYVAIHQDKWNTCTEILANEARKDQIQLNIQLDALKADVSNIKASQLSKDEKLDRMEREQFAMHESLETINRYLTVKLDRTKLQLEAIKNTMDYMKAQMDGYFSAINGVQCLQPGFEKIGDRYFYIEEDVELNWLDAQAKCRRMGGHLASIKTKQEFDAIVEKLDDSKSYFLGVNENTKTGDFVSAASGKSCLYHEWGPGEPHHNNDQERCVSILRKLMHVGNCTYEKRFICQYGI
# Legend:
# Test in all cases: glycan array binding signal (z-score within array); higher = stronger binding
# Conditions in all cases: glycan notation: IUPAC condensed, linker removed
# [1] = molecular target: Neu5Ac(a2-3)Gal(b1-4)GlcNAc(b1-3)Gal(b1-4)GlcNAc(b1-3)Gal(b1-4)GlcNAc
# In short: (§1)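 Glycan array binding is given as a within-array Z-score, which can be read as non-binding when negative. The arrays, 3228 of them, came from the Consortium for Functional Glycomics database and were retained only where the protein sequence was available. Z-scores were averaged across arrays of the same protein sequence at different concentrations or buffers and across linkers.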
# [2] = molecular target: Neu5Ac(a2-3)Gal(b1-4)GlcNAc(b1-3)Gal(b1-4)GlcNAc(b1-3)Gal(b1-4)GlcNAc(b1-2)Man(a1-3)[Neu5Ac(a2-3)Gal(b1-4)GlcNAc(b1-3)Gal(b1-4)GlcNAc(b1-3)Gal(b1-4)GlcNAc(b1-2)Man(a1-6)]GalNAc
# In short: as §1
# [3] = molecular target: Neu5Ac(a2-3)Gal(b1-4)GlcNAc(b1-3)Gal(b1-4)GlcNAc(b1-3)GalNAc
# In short: as §1
# [4] = molecular target: Neu5Ac(a2-3)Gal(b1-4)GlcNAc(b1-3)Gal(b1-4)GlcNAc(b1-3)[Neu5Ac(a2-3)Gal(b1-4)GlcNAc(b1-3)Gal(b1-4)GlcNAc(b1-6)]GalNAc
# In short: as §1
# [5] = molecular target: Neu5Ac(a2-3)Gal(b1-4)GlcNAc(b1-3)Gal(b1-4)GlcNAc(b1-6)[Gal(b1-3)]GalNAc
# In short: as §1
# [6] = molecular target: Neu5Ac(a2-3)Gal(b1-4)GlcNAc(b1-3)Gal(b1-4)[Fuc(a1-3)]GlcNAc
# In short: as §1
# [7] = molecular target: Neu5Ac(a2-3)Gal(b1-4)GlcNAc(b1-3)GalNAc
# In short: as §1
# [8] = molecular target: Neu5Ac(a2-3)Gal(b1-4)GlcNAc(b1-3)[Neu5Ac(a2-3)Gal(b1-4)GlcNAc(b1-6)]GalNAc
# In short: as §1
# [9] = molecular target: Neu5Ac(a2-3)Gal(b1-4)GlcNAc(b1-6)GalNAc
# In short: as §1
# [10] = molecular target: Neu5Ac(a2-3)Gal(b1-4)GlcNAc(b1-6)[Gal(b1-3)]GalNAc
# In short: as §1
# [11] = molecular target: Neu5Ac(a2-3)Gal(b1-4)GlcNAc(b1-6)[Neu5Ac(a2-3)Gal(b1-3)]GalNAc
# In short: as §1
# [12] = molecular target: Neu5Ac(a2-3)Gal(b1-4)GlcNAc6S
# In short: as §1
# [13] = molecular target: Neu5Ac(a2-3)Gal(b1-4)[Fuc(a1-3)]GlcNAc
# In short: as §1
# [14] = molecular target: Neu5Ac(a2-3)Gal(b1-4)[Fuc(a1-3)]GlcNAc(b1-2)Man
# In short: as §1
# [15] = molecular target: Neu5Ac(a2-3)Gal(b1-4)[Fuc(a1-3)]GlcNAc(b1-3)Gal
# In short: as §1
# [16] = molecular target: Neu5Ac(a2-3)Gal(b1-4)[Fuc(a1-3)]GlcNAc(b1-3)Gal(b1-4)GlcNAc
# In short: as §1
# [17] = molecular target: Neu5Ac(a2-3)Gal(b1-4)[Fuc(a1-3)]GlcNAc(b1-3)Gal(b1-4)[Fuc(a1-3)]GlcNAc(b1-3)Gal(b1-4)[Fuc(a1-3)]GlcNAc
# In short: as §1
# [18] = molecular target: Neu5Ac(a2-3)Gal(b1-4)[Fuc(a1-3)]GlcNAc(b1-3)GalNAc
# In short: as §1
# [19] = molecular target: Neu5Ac(a2-3)Gal(b1-4)[Fuc(a1-3)]GlcNAc(b1-6)[Gal(b1-3)]GalNAc
# In short: as §1
# [20] = molecular target: Neu5Ac(a2-3)Gal(b1-4)[Fuc(a1-3)]GlcNAc(b1-6)[Neu5Ac(a2-3)Gal(b1-3)]GalNAc
# In short: as §1
# [21] = molecular target: Neu5Ac(a2-3)Gal(b1-4)[Fuc(a1-3)]GlcNAc6S
# In short: as §1
# [22] = molecular target: Neu5Ac(a2-3)Gal6S(b1-4)GlcNAc
# In short: as §1
# [23] = molecular target: Neu5Ac(a2-3)Gal6S(b1-4)[Fuc(a1-3)]GlcNAc
# In short: as §1
# Neu5Ac(a2-3)GalNAc = molecular target: Neu5Ac(a2-3)GalNAc
# In short: as §1
# [24] = molecular target: Neu5Ac(a2-3)GalNAc(b1-4)GlcNAc
# In short: as §1
# [25] = molecular target: Neu5Ac(a2-3)[GalNAc(b1-4)]Gal(b1-4)Glc
# In short: as §1
# [26] = molecular target: Neu5Ac(a2-3)[GalNAc(b1-4)]Gal(b1-4)GlcNAc
# In short: as §1
# [27] = molecular target: Neu5Ac(a2-3)[GalNAc(b1-4)]Gal(b1-4)GlcNAc(b1-3)GalNAc
# In short: as §1
# [28] = molecular target: Neu5Ac(a2-3)[Neu5Ac(a2-6)]GalNAc
# In short: as §1
# Neu5Ac(a2-6)Gal = molecular target: Neu5Ac(a2-6)Gal
# In short: as §1
# [29] = molecular target: Neu5Ac(a2-6)Gal(b1-3)GlcNAc(b1-3)[Gal(b1-4)GlcNAc(b1-6)]Gal(b1-4)Glc
# In short: as §1
# Neu5Ac(a2-6)Gal(b1-4)Glc = molecular target: Neu5Ac(a2-6)Gal(b1-4)Glc
# In short: as §1
# [30] = molecular target: Neu5Ac(a2-6)Gal(b1-4)GlcNAc
# In short: as §1
# [31] = molecular target: Neu5Ac(a2-6)Gal(b1-4)GlcNAc(b1-2)Man
# In short: as §1
# [32] = molecular target: Neu5Ac(a2-6)Gal(b1-4)GlcNAc(b1-2)Man(a1-3)Man(b1-4)GlcNAc(b1-4)GlcNAc
# In short: as §1
# [33] = molecular target: Neu5Ac(a2-6)Gal(b1-4)GlcNAc(b1-2)Man(a1-3)[Gal(b1-4)GlcNAc(b1-2)Man(a1-6)]Man(b1-4)GlcNAc(b1-4)GlcNAc
# In short: as §1
# [34] = molecular target: Neu5Ac(a2-6)Gal(b1-4)GlcNAc(b1-2)Man(a1-3)[GlcNAc(b1-2)Man(a1-6)]Man(b1-4)GlcNAc(b1-4)GlcNAc
# In short: as §1
# [35] = molecular target: Neu5Ac(a2-6)Gal(b1-4)GlcNAc(b1-2)Man(a1-3)[GlcNAc(b1-4)][Neu5Ac(a2-6)Gal(b1-4)GlcNAc(b1-2)Man(a1-6)]Man(b1-4)GlcNAc(b1-4)GlcNAc
# In short: as §1
binder,measurement,setting,value
B1,glycan array binding signal (z-score),[1],0.04
same,glycan array binding signal (z-score),[2],1.14
same,glycan array binding signal (z-score),[3],0.444
same,glycan array binding signal (z-score),[4],0.339
same,glycan array binding signal (z-score),[5],-1.11
same,glycan array binding signal (z-score),[6],0.051
same,glycan array binding signal (z-score),[7],-0.018
same,glycan array binding signal (z-score),[8],1.34
same,glycan array binding signal (z-score),[9],-0.73
same,glycan array binding signal (z-score),[10],1.28
same,glycan array binding signal (z-score),[11],-0.127
same,glycan array binding signal (z-score),[12],-0.821
same,glycan array binding signal (z-score),[13],-0.035
same,glycan array binding signal (z-score),[14],-0.996
same,glycan array binding signal (z-score),[15],-0.485
same,glycan array binding signal (z-score),[16],0.1
same,glycan array binding signal (z-score),[17],-0.945
same,glycan array binding signal (z-score),[18],-0.643
same,glycan array binding signal (z-score),[19],-1.09
same,glycan array binding signal (z-score),[20],1.76
same,glycan array binding signal (z-score),[21],0.111
same,glycan array binding signal (z-score),[22],0.493
same,glycan array binding signal (z-score),[23],-1.28
same,glycan array binding signal (z-score),Neu5Ac(a2-3)GalNAc,-1.32
same,glycan array binding signal (z-score),[24],1.8
same,glycan array binding signal (z-score),[25],-0.19
same,glycan array binding signal (z-score),[26],0.42
same,glycan array binding signal (z-score),[27],0.615
same,glycan array binding signal (z-score),[28],0.765
same,glycan array binding signal (z-score),Neu5Ac(a2-6)Gal,-0.598
same,glycan array binding signal (z-score),[29],-1.67
same,glycan array binding signal (z-score),Neu5Ac(a2-6)Gal(b1-4)Glc,-0.832
same,glycan array binding signal (z-score),[30],-0.848
same,glycan array binding signal (z-score),[31],-0.44
same,glycan array binding signal (z-score),[32],-0.861
same,glycan array binding signal (z-score),[33],-0.519
same,glycan array binding signal (z-score),[34],1.13
same,glycan array binding signal (z-score),[35],-1.2

# Reprinted from above (2 entries):
binder,measurement,setting,value
B1,glycan array binding signal (z-score),[12],-0.821
same,glycan array binding signal (z-score),[13],-0.035
